Assay results reported in patent publication US9686990B2, “Spiroindolinepiperidine derivatives” (priority 2002, dated 2017).
Some entries share one result that the patent states for a list of compounds.

Experiments:
Type in all cases: in vivo
[1] = test system: Spodoptera littoralis (Egyptian Cotton Leafworm); assay: Spodoptera littoralis cotton leaf disc spray test; settings: 200 ppm sprayed on cotton leaf discs, L1 larvae, 3 days after treatment; mortality, repellent effect, feeding behaviour, growth regulation
Method: (§1) Test against were performed as follows:
Spodoptera littoralis (Egyptian Cotton Leafworm)

[2] = test system: Heliothis virescens (Tobacco Budworm); assay: Heliothis virescens egg/larva test on artificial diet; settings: 200 ppm by pipetting, eggs 0-24 h old on artificial diet, 4 days incubation; egg mortality, larval mortality, growth regulation
[3] = test system: Aedes aegypti (Yellow Fever Mosquito); settings: 2 ppm, L2 larvae with nutrition mixture, 2 days; mortality and growth inhibition
Method: as §1
Bean leaf discs on agar in 24-well microtiter plates wer sprayed with test solutions at an application rate of 200 ppm. After drying, the leaf discs are infested with mite populations of mixed ages. 8 days later, discs are checked for egg mortality, larval mortality, and adult mortality. […] Aedes aegypti (Yellow Fever Mosquito): 10-15 Aedes larvae (L2) together with a nutrition mixture are placed in 96-well microtiter plates. Test solutions at an application rate of 2 ppm are pipetted into the wells. 2 days later, insects were checked for mortality and growth inhibition.

O=C(c1ccnc(Cl)c1)N1CC2(CCN(C/C=C/c3ccc(Cl)cc3)CC2)c2ccccc21 [Compound I-2]
control of Spodoptera littoralis [1]: at least 80%
control of Heliothis virescens [2]: at least 80%

O=C(c1ccnc(Cl)c1)N1CC2(CCN(C/C=C/c3ccc([N+](=O)[O-])cc3)CC2)c2ccccc21 [Compound I-4]
control of Aedes aegypti [3]: at least 80%
control of Heliothis virescens [2]: at least 80%

COc1ccc(/C=C/CN2CCC3(CC2)CN(C(=O)c2ccnc(Cl)c2)c2ccccc23)cc1 [Compound I-5]
control of Aedes aegypti [3]: at least 80%
control of Heliothis virescens [2]: at least 80%

O=C(c1ccnc(Cl)c1)N1CC2(CCN(C/C=C/c3ccc(Cl)cc3)CC2)c2cc(I)ccc21 [Compound I-182]
control of Spodoptera littoralis [1]: at least 80%
control of Heliothis virescens [2]: at least 80%

COc1ccc2c(c1)C1(CCN(C/C=C/c3ccc(Cl)cc3)CC1)CN2C(=O)c1ccnc(Cl)c1 [Compound I-192]
control of Spodoptera littoralis [1]: at least 80%
control of Heliothis virescens [2]: at least 80%

O=C(c1ccnc(Cl)c1)N1CC2(CCN(C/C=C/c3ccc(Cl)cc3)CC2)c2cc(-c3ccc(F)cc3)ccc21 [Compound I-282]
control of Spodoptera littoralis [1]: at least 80%
control of Heliothis virescens [2]: at least 80%

COCCC(=O)N1CC2(CCN(C/C=C/c3ccc(Cl)cc3)CC2)c2cc(Cl)ccc21 [Compound X-22]
control of Spodoptera littoralis [1]: at least 80%
control of Heliothis virescens [2]: at least 80%

COCCC(=O)N1CC2(CCN(C/C=C/c3ccc(Cl)cc3)CC2)c2cc(F)ccc21 [Compound X-62]
control of Spodoptera littoralis [1]: at least 80%
control of Heliothis virescens [2]: at least 80%

COC(=O)N1CC2(CCN(C/C=C/c3ccc(Cl)cc3)CC2)c2cc(Cl)ccc21 [II-22]
control of Aedes aegypti [3]: at least 80%
control of Heliothis virescens [2]: at least 80%

O=C(CC(F)(F)F)N1CC2(CCN(C/C=C/c3ccc(Cl)cc3)CC2)c2cc(F)ccc21 [XI-62]
control of Spodoptera littoralis [1]: at least 80%
control of Heliothis virescens [2]: at least 80%

O=C(NCCCl)N1CC2(CCN(C/C=C/c3ccc(Cl)cc3)CC2)c2cc(Cl)ccc21 [XII-22]
control of Spodoptera littoralis [1]: at least 80%
control of Heliothis virescens [2]: at least 80%

O=C(C1CCCO1)N1CC2(CCN(C/C=C/c3ccc(Cl)cc3)CC2)c2cc(F)ccc21 (centres unmarked) [XIII-62]
control of Spodoptera littoralis [1]: at least 80%
control of Heliothis virescens [2]: at least 80%

N#Cc1ccc(/C=C/CN2CCC3(CC2)CN(C(=O)c2ccc4c(c2)OCO4)c2ccccc23)cc1 [XX-8]
control of Spodoptera littoralis [1]: at least 80%

O=C(c1ccc2c(c1)OCO2)N1CC2(CCN(C/C=C/c3ccc(Cl)cc3)CC2)c2cc(F)ccc21 [XX-62]
control of Spodoptera littoralis [1]: at least 80%
control of Heliothis virescens [2]: at least 80%

O=C(c1ccnc(Cl)c1)N1CC2(CCN(CC#Cc3ccccc3)CC2)c2cc(Cl)ccc21 [XXIX-13]
control of Aedes aegypti [3]: at least 80%
control of Heliothis virescens [2]: at least 80%

O=C(c1ccnc(Cl)c1)N1CC2(CCN(CC=C(Cl)Cl)CC2)c2cc(Cl)ccc21 [XXIX-43]
control of Spodoptera littoralis [1]: at least 80%

O=C(c1ccc(Cl)nc1)N1CC2(CCN(C/C=C/c3ccc(Cl)cc3)CC2)c2cc(Cl)ccc21 [XXIX-75]
control of Aedes aegypti [3]: at least 80%
control of Heliothis virescens [2]: at least 80%

O=C(Cc1cccs1)N1CC2(CCN(C/C=C/c3ccc(Cl)cc3)CC2)c2cc(Cl)ccc21 [XXIX-123]
control of Aedes aegypti [3]: at least 80%
control of Heliothis virescens [2]: at least 80%

O=C(C1=CCCCC1)N1CC2(CCN(C/C=C/c3ccc(Cl)cc3)CC2)c2cc(F)ccc21 [XXIX-159]
control of Aedes aegypti [3]: at least 80%
control of Heliothis virescens [2]: at least 80%

CC(=O)N1CC2(CCN(C/C=C/c3ccc(Cl)cc3)CC2)c2ccc(OC(F)(F)C(F)F)cc21 [XXX-4]
control of Aedes aegypti [3]: at least 80%
control of Heliothis virescens [2]: at least 80%

CC(=O)N1CC2(CCN(C/C=C/c3ccc(Cl)cc3)CC2)c2c(OC(F)(F)C(F)F)cccc21 [XXX-5]
control of Aedes aegypti [3]: at least 80%
control of Heliothis virescens [2]: at least 80%

O=C(c1ccnc(Cl)c1)N1CC2(CCN(C/C=C/c3ccc(Cl)cc3)CC2)c2c(OC(F)(F)C(F)F)cccc21 [XXX-8]
control of Aedes aegypti [3]: at least 80%
control of Heliothis virescens [2]: at least 80%

O=C(c1ccnc(Cl)c1)N1CC2(CCN(C/C=C/c3ccc(Cl)cc3)CC2)c2cccc(Oc3ccccc3)c21 [XXX-10]
control of Spodoptera littoralis [1]: at least 80%
control of Heliothis virescens [2]: at least 80%

O=C(c1cc(Br)nc(Br)c1)N1CC2(CCN(C/C=C/c3ccc(Cl)cc3)CC2)c2c(OC(F)(F)C(F)F)cccc21 [XXX-15]
control of Spodoptera littoralis [1]: at least 80%
control of Heliothis virescens [2]: at least 80%

O=C(c1cccnc1)N1CC2(CCN(C/C=C/c3ccc(Cl)cc3)CC2)c2c(OC(F)(F)C(F)F)cccc21 [XXX-17]
control of Aedes aegypti [3]: at least 80%
control of Heliothis virescens [2]: at least 80%

O=C(c1c(Cl)cncc1Cl)N1CC2(CCN(C/C=C/c3ccc(Cl)cc3)CC2)c2ccc(OC(F)(F)C(F)F)cc21 [XXX-22]
control of Aedes aegypti [3]: at least 80%
control of Heliothis virescens [2]: at least 80%

CC(=O)N1CC2(CCN(C/C=C/c3ccc(Cl)cc3)CC2)c2cccc(Cl)c21 [XXX-34]
control of Aedes aegypti [3]: at least 80%
control of Heliothis virescens [2]: at least 80%

O=C(c1ccnc(Cl)c1)N1CC2(CCN(C/C=C/c3ccc(Cl)cc3)CC2)c2cccc(Cl)c21 [XXX-35]
control of Aedes aegypti [3]: at least 80%
control of Heliothis virescens [2]: at least 80%

O=C(c1ccnc(Cl)c1)N1CC2(CCN(C/C=C/c3ccc(Cl)cc3)CC2)c2cc(Br)ccc21 [XXX-42]
control of Spodoptera littoralis [1]: at least 80%

COc1c(C)cc(/C=C/CN2CCC3(CC2)CN(C(=O)c2ccnc(Cl)c2)c2ccc(Cl)cc23)cc1Cl [XXX-68]
control of Aedes aegypti [3]: at least 80%
control of Heliothis virescens [2]: at least 80%

O=C(c1ccnc(Cl)c1)N1CC2(CCN(C/C=C/c3ccc(Br)cc3)CC2)c2cc(Cl)ccc21 [XXX-75]
control of Aedes aegypti [3]: at least 80%
control of Heliothis virescens [2]: at least 80%

O=C(c1ccnc(Cl)c1)N1CC2(CCN(C/C=C/c3cccc(C(F)(F)F)c3)CC2)c2cc(Cl)ccc21 [XXX-78]
control of Aedes aegypti [3]: at least 80%
control of Heliothis virescens [2]: at least 80%

O=C(NN1CC2(CCN(C/C=C/c3ccc(Cl)cc3)CC2)c2cc(F)ccc21)c1ccnc(Cl)c1 [XXX-95]
control of Spodoptera littoralis [1]: at least 80%

O=C(NN1CC2(CCN(C/C=C/c3ccc(Cl)cc3)CC2)c2cc(Cl)ccc21)c1ccc(OC(F)(F)F)cc1 [XXX-97]
control of Aedes aegypti [3]: at least 80%

O=C(NN1CC2(CCN(C/C=C/c3ccc(Cl)cc3)CC2)c2cc(Cl)ccc21)c1ccncc1 [XXX-98]
control of Aedes aegypti [3]: at least 80%
control of Heliothis virescens [2]: at least 80%

O=NN1CC2(CCN(C/C=C/c3ccc(Cl)cc3)CC2)c2cc(F)ccc21 [XXX-121, 1-nitroso-5-fluoro-1′-[trans-3-(4-chlorophenyl)allyl]spiro[indoline-3,4′-piperdine]]
control of Aedes aegypti [3]: at least 80%

CCn1nnc(-c2ccc(CN3CCC4(CC3)CN(C(=O)c3ccnc(Cl)c3)c3ccc(Cl)cc34)cc2)n1 [XXXII-10]
control of Aedes aegypti [3]: at least 80%
control of Heliothis virescens [2]: at least 80%
